Source: PubChem BioAssay AID1671190 (National Center for Advancing Translational Sciences (NCATS), 2021)
Hit rate of the full screen: of about 580,000 compounds, about 6,100 (1.1%) were called active. Inconclusive means that the source gave no clear call. Such entries were picked first, then a sample of the others. Calls come from the whole dose curve; as a rule, active = well fitted inhibition curve with a large enough effect; inconclusive = small, poorly fitted or top-dose-only effect, or another doubt; inactive = no such curve, though single readings can be large or run the other way. Where the call is inconclusive, the potency comes from a doubtful curve fit.

The chains behind the UniProt entries cited, without tags or fusion partners. Where a name states a change or a piece, a line headed by the entry shows the natural chain unless it says otherwise.
UniProt P18054: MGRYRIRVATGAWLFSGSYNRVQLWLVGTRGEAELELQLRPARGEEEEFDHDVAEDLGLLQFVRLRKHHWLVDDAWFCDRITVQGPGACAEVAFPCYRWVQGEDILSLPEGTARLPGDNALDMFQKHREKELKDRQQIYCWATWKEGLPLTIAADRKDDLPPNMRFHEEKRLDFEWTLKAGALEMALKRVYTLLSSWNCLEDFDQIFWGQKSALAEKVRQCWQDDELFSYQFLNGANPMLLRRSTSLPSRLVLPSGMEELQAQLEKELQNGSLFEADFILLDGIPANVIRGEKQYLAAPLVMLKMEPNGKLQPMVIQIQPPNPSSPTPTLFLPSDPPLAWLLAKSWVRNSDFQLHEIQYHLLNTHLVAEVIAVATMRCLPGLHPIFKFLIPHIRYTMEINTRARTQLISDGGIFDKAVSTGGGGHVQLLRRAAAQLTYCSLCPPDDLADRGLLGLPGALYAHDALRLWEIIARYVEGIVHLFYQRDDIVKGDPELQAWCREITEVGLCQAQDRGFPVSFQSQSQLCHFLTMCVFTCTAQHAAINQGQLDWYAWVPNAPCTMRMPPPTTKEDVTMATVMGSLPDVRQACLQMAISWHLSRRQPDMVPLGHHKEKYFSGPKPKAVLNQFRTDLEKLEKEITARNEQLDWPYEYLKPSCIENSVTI

molecular target: Polyunsaturated fatty acid lipoxygenase ALOX12 (Homo sapiens) (UniProt P18054); experiment: Primary qHTS assay for inhibitors of human arachidonate 12S-lipoxygenase (ALOX12): Round 2; conditions: purified 12hLO, xylenol orange hydroperoxide absorbance; activity change, negative = inhibition: at 108 µM (top of the series) unless noted
In short: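 Purified human 12hLO (150 nM final) in 25 mM Hepes, 0.01% Triton X-100, pH 7.0 was preincubated 15 min at room temperature with compound. Then 40 uM arachidonic acid was added, 30 min. Hydroperoxide was read by Fe-XO absorbance ratio 573/405 nm.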
% is set by controls: 0 for no effect and ±100 for the full control effect; potency is the fitted concentration of half-maximal effect.

Compound | Potency | activity change, negative = inhibition
CN1CC(=O)N(C2CCCNC2)Cc2c(NCCOc3ccccc3)ncnc21 (configuration not stated) | inconclusive: 14.1 µM [inhibitor, full curve] | 
O=C(O)c1ccccc1NC(=O)C(c1ccccc1)c1ccccc1 | inconclusive: 50.1 µM [inhibitor, partial curve, poor fit] | 
N#CC1=C2SCN(C3CCCCC3)CN2C(=O)CC1c1ccc(Cl)cc1 (configuration not stated) | inconclusive: 39.8 µM [inhibitor, partial curve, poor fit] | 
COC(=O)[C@]12C[C@H](CC(=O)NCCCCc3ccccc3)C(=O)N(CCC3=CCCCC3)C1=C[C@H](C(C)(C)C)O[C@@H]2C | inconclusive: 0.398 µM [inhibitor, full curve, poor fit] | 
COc1ccc(NC(=S)NNc2ccc(S(=O)(=O)Nc3ccccc3C(=O)O)cc2[N+](=O)[O-])cc1 | active: 7.94 µM | 
Cc1sc(NC(=O)c2cccs2)c(C#N)c1C | inconclusive: 35.5 µM [inhibitor, partial curve, poor fit] | 
O=c1[nH]c2ccccc2n1CCC1CCCCC1 | inconclusive: 126 µM [inhibitor, single point] | 
CC(C)c1ccc(CN2C(=O)C(n3cccc3)c3ccccc32)cc1 (configuration not stated) | inconclusive: 44.7 µM [inhibitor, partial curve, poor fit] | 
CCCNC(=O)c1ccc2nc(-c3ccc(C)cc3)cc(OC)c2c1 | inactive | 
O=C1c2cc(O)cc(O)c2C(=O)c2c1cc(O)c([C@@H](CO)CCO)c2O | inconclusive: 39.8 µM [inhibitor, partial curve] | 
O/N=C1\CC(c2ccccc2)Oc2ccc(Cl)cc21 (configuration not stated) | inconclusive: 50.1 µM [inhibitor, partial curve, poor fit] | 
Cc1ccc(-c2cc(N3CCC(CNC(=O)c4ccc5nc[nH]c5c4)CC3)n[nH]2)cc1 | inactive | 
N#Cc1ccc(CNC(=O)[C@@H]2Cc3nc[nH]c3CN2Cc2cc3ccccc3o2)cc1 | inactive | 
N#CCCn1c(=O)c(-c2ccccc2)nc2cnc(N3CCNCC3)nc21 | inconclusive: 89.1 µM [inhibitor, single point] | 
O=C(c1cc(C2CC2)nc2onc(C3CCCN3)c12)N1CCOCC1 (configuration not stated) |  | inactive: -2.45% [at 6.33 µM]
O=c1c(O)cccc2cc(O)c(O)c(O)c12 | active: 12.6 µM | 
CCC(C)NC(=O)c1cc(-c2cccnc2)nc2ccccc12 (configuration not stated) | inactive | 
Cc1ccc(C(C)C)c(OCC(O)CN2CCN(CCO)CC2)c1 (configuration not stated) | active: 10 µM | 
O=C(CSc1nc(-c2ccccc2)c(-c2ccccc2)[nH]1)NCCN1C(=O)CSC1=O | inconclusive: 89.1 µM [inhibitor, single point] | 
Clc1ccccc1Cn1c(/C=C/c2ccco2)nc2ccccc21 | inconclusive: 8.91 µM [inhibitor, full curve, poor fit] | 
O=C(O)CCCNc1cc(N2CCN(C(=O)c3ccco3)CC2)c2noc3c2c1C(=O)c1ccccc1-3 | inactive | 

2 entries drawn at random from those above, as already listed:
Compound | Potency | activity change, negative = inhibition
O=C(O)CCCNc1cc(N2CCN(C(=O)c3ccco3)CC2)c2noc3c2c1C(=O)c1ccccc1-3 | inactive | 
COc1ccc(NC(=S)NNc2ccc(S(=O)(=O)Nc3ccccc3C(=O)O)cc2[N+](=O)[O-])cc1 | active: 7.94 µM | 

Next entries:

Compound | Potency | activity change, negative = inhibition
COc1ccc(NC(=O)c2cc(Cl)c(O)c(OC)c2)c(OC)c1 | inconclusive: 63.1 µM [inhibitor, partial curve, poor fit] | 
Cc1cc(=O)oc2c(C)c(OCc3nc(-c4ccc(Cl)cc4)no3)ccc12 | inconclusive: 28.2 µM [inhibitor, partial curve] | 
Cc1cc(C2N=C(N)Nc3nc4ccccc4n32)c(C)n1-c1ccccc1Cl (configuration not stated) | inconclusive: 44.7 µM [inhibitor, partial curve, poor fit] | 
CCOC(=O)c1sc(NC(=O)c2cc(-c3ccccc3C)nc3ccccc23)c(C#N)c1C | inconclusive: 50.1 µM [inhibitor, partial curve, poor fit] | 
Cc1ccc(NC(=O)C2C(C(=O)O)C3C=CC2C32CC2)cc1 (configuration not stated) | inactive | 
O=C(Nc1ccc([N+](=O)[O-])cc1)Nc1ccc(OC(F)F)c(Cl)c1 | inactive | 
CCOC(=O)C1=C(Nc2ccccc2)OCC1=O | inactive | 
COCCNC(=O)[C@@H]1C[C@H](Oc2cccnc2)CN1C(=O)c1cc2ccc(OC)cc2[nH]1 | inactive | 
Cc1ccc(F)c(S(=O)(=O)NC(=O)C2(C)CCN2C(=O)CCc2ccccc2)c1 (configuration not stated) | inconclusive: 50.1 µM [inhibitor, partial curve, poor fit] | 
CSc1ccc(C2Nc3cccc4cccc(c34)N2)cc1 | inconclusive: 2.82 µM [inhibitor, partial curve, poor fit] | 
Cc1nc(NC(=O)c2ccccc2)sc1-c1csc(NCCc2ccccc2)n1 | inconclusive: 63.1 µM [inhibitor, partial curve, poor fit] | 
CC(=O)NC(CC(=O)OCC(=O)c1c(N)n(C)c(=O)n(C)c1=O)c1ccccc1 (configuration not stated) | inactive | 
O=C1c2cccc3cccc(c23)C(=O)N1c1ccc(O)cc1 | inactive | 
OCCN(CCO)c1ncnc2c1cnn2-c1ccc(F)cc1 | inconclusive: 70.8 µM [inhibitor, partial curve, poor fit] | 
COc1ccc(C2CC(c3ccc(Br)cc3)=NN2C(=O)CN2CCCC2)cc1 (configuration not stated) | inactive | 
COc1ccc2oc(=O)cc(CN3CCN(C(=O)c4ccc(OC)c(OC)c4)CC3)c2c1 | inconclusive: 50.1 µM [inhibitor, partial curve, poor fit] | 
CCCOc1ccc(/C=N/NC(=O)C2CCCN2S(=O)(=O)c2ccc(Cl)cc2)cc1 (configuration not stated) | inconclusive: 70.8 µM [inhibitor, partial curve, poor fit] | 
CCOc1ccc(-c2n[nH]c(=S)n2/N=C/c2cc3c(cc2[N+](=O)[O-])OCO3)cc1 | inconclusive: 25.1 µM [inhibitor, partial curve] | 
N#Cc1c(SCC(=O)Nc2ccccc2)nc(N2CCCC2)c2c1CCCC2 | inconclusive: 5.01 µM [inhibitor, full curve, poor fit] | 
Cc1csc2nc(COC(=O)c3ccccc3NC(=O)c3ccc(C(C)(C)C)cc3)cc(=O)n12 | inconclusive: 22.4 µM [inhibitor, full curve, poor fit] | 
CC(C)CC1NC(=O)N(Cc2cc(F)cc3cccnc23)C1=O (configuration not stated) | inconclusive: 50.1 µM [inhibitor, single point] | 
